# Data as given in PubChem BioAssay AID1053208 (Peter MacCallum Cancer Centre, 2014)
# Purpose: 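Find knock-downs that sensitise mouse osteosarcoma cells to doxorubicin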 (primary screen)
# Cells: mouse osteosarcoma cells, early-passage culture from an engineered mouse model of fibroblastic bone tumour
# Knock-down reagent: siRNA pool against mouse genes, 40 nM
# Timing: about 120 h (48 h before drug, then 72 h with drug)
# Conditions: doxorubicin 100 nM for 72 h, roughly 30-40% inhibitory dose
# Measurement: 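Luminescent ATP signal taken as viability with or without 100 nM doxorubicin for 72 h; mean of two wells set against non-targeting siRNA and turned into robust z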
# Scale: viability z-score with doxorubicin and doxorubicin viability vs non-targeting: higher = more viable cells under doxorubicin; viability z-score without drug: higher = more viable cells with knock-down alone; z-score of drug to no-drug ratio: higher = less drug sensitisation by knock-down
# Active means: 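a pool counts as active when its viability z-score with doxorubicin is -2 or below and its z-score without drug lies between -2 and 2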
# In all, the deposit lists about 17,000 reagents; shown is a random part of them. Of all reagents, 788 (4.7%) got an active call. 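Calls rest on z-score classes alone; an extra cut-off of viability at most 70% of control was not applied to them.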 No sequences are given here.
gene knocked down,PubChem SID,combined z-score class,viability z-score with doxorubicin,viability z-score without drug,z-score of drug to no-drug ratio,doxorubicin viability vs non-targeting,Call
Bst2,SID152264344,low cell count with and without drug,-2.92,-2.53,-1.46,0.68,inactive
Or9a4,SID152342071,no change with or without drug,-1.35,-0.34,-1.12,0.82,inactive
Fcmr,SID152288845,no change with or without drug,0.22,1.18,-0.45,0.96,inactive
Or4d10c,SID152301916,no change with or without drug,-1.57,-1.01,-0.9,0.8,inactive
Zfp354b,SID152339346,no change with or without drug,-1.57,0.34,-1.8,0.8,inactive
Daxx,SID152272433,no change with or without drug,1.01,0.51,0.79,1.03,inactive
Ric8b,SID152311463,no change with or without drug,-0.67,0.51,-0.9,0.88,inactive
Ccna1,SID152304342,no change with or without drug,-0.22,0.17,-0.22,0.92,inactive
Rnh1,SID152267133,high cell count without drug only,1.57,2.19,0.22,1.08,inactive
Fhl5,SID152286823,no change with or without drug,0.11,1.18,-0.56,0.95,inactive
Or4n4,SID152341863,high cell count without drug only,0.67,2.19,-0.56,1,inactive
Bcl3,SID152317598,no change with or without drug,0.34,-1.01,1.24,0.97,inactive
Med25,SID152290871,no change with or without drug,0.67,0.84,0.22,1,inactive
Aifm3,SID152306805,no change with or without drug,0.34,1.18,-0.34,0.97,inactive
Dnajc2,SID152317938,no change with or without drug,-0.11,0,0,0.93,inactive
Dnajc2,SID152323996,no change with or without drug,-1.01,0.34,-1.12,0.85,inactive
Usp36,SID152275959,no change with or without drug,0.45,0.51,0.22,0.98,inactive
Eps8l1,SID152340935,no change with or without drug,-1.35,-0.17,-1.24,0.82,inactive
Mettl16,SID152332357,no change with or without drug,-0.22,0.34,-0.34,0.92,inactive
Jade2,SID152296739,no change with or without drug,-0.9,0.51,-1.12,0.86,inactive

Records above whose gene name starts with B or b (2):
gene knocked down,PubChem SID,combined z-score class,viability z-score with doxorubicin,viability z-score without drug,z-score of drug to no-drug ratio,doxorubicin viability vs non-targeting,Call
Bst2,SID152264344,low cell count with and without drug,-2.92,-2.53,-1.46,0.68,inactive
Bcl3,SID152317598,no change with or without drug,0.34,-1.01,1.24,0.97,inactive
